PMC3022755, “HP1 Recruits Activity-Dependent Neuroprotective Protein to H3K9me3 Marked Pericentromeric Heterochromatin for Silencing of Major Satellite Repeats” (PLoS ONE, 2011)
No constants are given. Whether binding was seen depends on the method and setting. In cells and extracts the contact can be indirect. Some binding calls cover weakened binding; strength is not graded here. Sequences can lack the tags named with a protein.

What was measured:
[1] = target: T1, YFP-ADNP, wild type, stably and inducibly expressed in NIH3T3 cells (UniProt Q9Z103); assay: co-IP; YFP-ADNP fusion proteins or YFP immunoprecipitated with anti-GFP antibodies from nuclear extracts of stable NIH3T3 cell lines; western blot with anti-ADNP antibody
T1 sequence: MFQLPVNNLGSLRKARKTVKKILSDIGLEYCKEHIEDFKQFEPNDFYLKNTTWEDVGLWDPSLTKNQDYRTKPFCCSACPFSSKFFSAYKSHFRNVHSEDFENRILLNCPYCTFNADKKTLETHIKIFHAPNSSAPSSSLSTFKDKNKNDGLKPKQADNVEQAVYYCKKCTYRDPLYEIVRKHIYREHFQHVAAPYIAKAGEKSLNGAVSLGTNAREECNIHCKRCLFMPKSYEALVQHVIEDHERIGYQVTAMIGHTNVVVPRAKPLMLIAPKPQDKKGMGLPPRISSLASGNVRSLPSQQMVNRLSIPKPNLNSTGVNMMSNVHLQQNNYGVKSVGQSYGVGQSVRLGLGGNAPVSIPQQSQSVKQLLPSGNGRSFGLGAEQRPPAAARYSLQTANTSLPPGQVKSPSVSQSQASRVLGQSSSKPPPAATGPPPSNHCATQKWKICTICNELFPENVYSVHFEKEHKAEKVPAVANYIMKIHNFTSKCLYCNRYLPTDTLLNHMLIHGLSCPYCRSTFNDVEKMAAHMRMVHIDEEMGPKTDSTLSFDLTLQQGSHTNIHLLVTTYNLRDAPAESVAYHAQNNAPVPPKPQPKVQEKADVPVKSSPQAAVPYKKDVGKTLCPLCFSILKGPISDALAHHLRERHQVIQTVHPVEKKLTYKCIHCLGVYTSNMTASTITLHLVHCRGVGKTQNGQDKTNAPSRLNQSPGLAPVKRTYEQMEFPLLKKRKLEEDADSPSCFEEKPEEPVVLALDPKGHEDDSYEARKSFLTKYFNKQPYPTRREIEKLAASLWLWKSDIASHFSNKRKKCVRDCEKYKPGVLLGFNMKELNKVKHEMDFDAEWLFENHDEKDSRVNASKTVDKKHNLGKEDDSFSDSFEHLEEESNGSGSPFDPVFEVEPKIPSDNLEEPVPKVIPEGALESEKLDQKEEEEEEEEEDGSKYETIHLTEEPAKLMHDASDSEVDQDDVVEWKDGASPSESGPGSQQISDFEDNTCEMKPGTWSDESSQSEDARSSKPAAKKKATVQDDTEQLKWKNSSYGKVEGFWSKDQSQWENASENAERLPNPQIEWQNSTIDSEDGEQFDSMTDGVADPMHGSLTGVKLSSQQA

[2] = target: H3unmod. peptide, …-biotin; assay: pull-down; H3K9me3 and unmodified H3 peptides on magnetic beads, TNT reticulocyte lysate with FLAG-tagged ADNP, no HP1 added; anti-FLAG western blot; only the target purified
[3] = target: H3unmod. peptide, …-biotin; assay: pull-down; H3 peptides on magnetic beads, TNT reticulocyte lysate with FLAG-tagged ADNP (wt or point mutants) together with added recombinant His6-HP1 (α, β, γ or β W170A); anti-FLAG and anti-His6 western blots; only the target purified

B1: ADNP, endogenous in NIH3T3 nuclear extract (protein, UniProt Q9Z103 1-1108)
chain: T1 sequence
Question: For B1, which binding [1] is on record?
Answer: The binding was “binds”.

B2: FLAG-tagged ADNP, wild type, expressed in TNT reticulocyte extract (protein, UniProt Q9Z103 1-1108)
chain: T1 sequence
Question: For B2, which binding [2] is on record?
Answer: The binding was “no binding”.

Question: And the binding [3]?
Answer: The binding was “no binding”.
